These are yes or no findings as the source states them, for the method shown. For some assays here: A result given as binding can be weak or reduced; the word gives no strength. For some assays here: In cells and extracts the contact can be indirect.
Tests used:
[1] = target: TEX10 structurally conserved N terminus, N-terminal GFP tag (human) (UniProt Q9NXF1); assay: co-IP; anti-GFP nanobody Sepharose; N-terminally GFP-tagged TEX10 variants as bait, exogenous rixosome including LAS1L-NOL9 co-transfected in HEK293FT; Western blot
[2] = target: PELP1 with the VEI motif (776-778) deleted, C-terminal FLAG tag (human) (UniProt Q8IZL8); assay: co-IP; anti-FLAG M2 affinity gel; FLAG-tagged PELP1 variants as bait, exogenous rixosome subunits co-transfected in HEK293FT; lysis in 50 mM Hepes pH 7.5, 200 mM NaCl, 5 mM MgCl2, 10% glycerol, 0.5% NP-40, 1 mM DTT, 4°C; SDS-PAGE and Western blot
[3] = target: PELP1 with the VEI motif (776-778) mutated, C-terminal FLAG tag (human) (UniProt Q8IZL8); assay: as above
[4] = target: PELP1 with the FVH motif (765-767) deleted, C-terminal FLAG tag (human) (UniProt Q8IZL8); assay: as above
[5] = target: PELP1 with the FVH motif (765-767) mutated, C-terminal FLAG tag (human) (UniProt Q8IZL8); assay: as above
[6] = target: SENP3 N-terminal domain, N-terminal FLAG tag (human); assay: co-IP; anti-FLAG M2 affinity gel; N-terminally FLAG-tagged SENP3 truncations as bait, exogenous rixosome co-transfected in HEK293FT; Western blot
[7] = target: TEX10 without the N-terminal tail, N-terminal GFP tag (human); assay: co-IP; anti-GFP nanobody Sepharose; N-terminally GFP-tagged TEX10 variants as bait, exogenous rixosome including LAS1L-NOL9 co-transfected in HEK293FT; Western blot
[8] = target: wild-type SENP3 apoprotein (protease domain) used for differential scanning fluorimetry (human); assay: differential scanning fluorimetry; SENP3 0.6 mg/ml with or without 1.5x molar excess of sPELP1 or lPELP1; 20 mM Hepes pH 7.3, 200 mM NaCl, 10% glycerol; Sypro Orange, 25 to 95°C; both purified

Protein sequences, listed by entry. Tags and fused reporters are not part of them. Lines headed by an entry give the natural chain unless they say otherwise; changes in a name come on top.
UniProt Q8IZL8: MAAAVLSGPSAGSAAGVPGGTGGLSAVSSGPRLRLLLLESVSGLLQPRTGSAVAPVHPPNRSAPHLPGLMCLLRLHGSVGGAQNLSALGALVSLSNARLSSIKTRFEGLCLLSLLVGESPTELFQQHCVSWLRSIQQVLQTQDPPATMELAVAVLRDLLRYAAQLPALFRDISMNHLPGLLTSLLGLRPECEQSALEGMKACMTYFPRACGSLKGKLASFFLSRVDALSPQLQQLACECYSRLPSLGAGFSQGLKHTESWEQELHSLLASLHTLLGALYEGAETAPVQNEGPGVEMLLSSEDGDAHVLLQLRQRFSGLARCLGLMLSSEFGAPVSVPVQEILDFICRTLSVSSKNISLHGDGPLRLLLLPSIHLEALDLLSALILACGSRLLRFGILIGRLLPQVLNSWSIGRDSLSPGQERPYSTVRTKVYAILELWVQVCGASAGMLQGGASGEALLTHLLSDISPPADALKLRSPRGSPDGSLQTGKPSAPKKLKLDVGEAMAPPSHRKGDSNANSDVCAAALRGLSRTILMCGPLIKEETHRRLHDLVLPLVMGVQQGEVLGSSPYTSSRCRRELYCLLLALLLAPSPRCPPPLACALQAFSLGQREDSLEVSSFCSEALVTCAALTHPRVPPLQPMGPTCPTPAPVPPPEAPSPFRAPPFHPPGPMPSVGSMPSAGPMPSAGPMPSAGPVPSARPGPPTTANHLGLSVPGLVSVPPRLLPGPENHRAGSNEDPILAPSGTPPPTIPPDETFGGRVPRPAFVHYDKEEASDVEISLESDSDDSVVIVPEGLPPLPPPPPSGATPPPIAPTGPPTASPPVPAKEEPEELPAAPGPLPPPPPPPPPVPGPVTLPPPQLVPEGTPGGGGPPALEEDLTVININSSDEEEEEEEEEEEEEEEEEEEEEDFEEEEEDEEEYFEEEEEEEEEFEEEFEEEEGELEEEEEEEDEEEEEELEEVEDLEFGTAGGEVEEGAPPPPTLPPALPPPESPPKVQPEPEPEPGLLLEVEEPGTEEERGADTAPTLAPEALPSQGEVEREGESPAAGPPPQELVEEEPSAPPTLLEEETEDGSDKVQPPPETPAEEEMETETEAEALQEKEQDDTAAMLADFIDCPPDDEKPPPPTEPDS
UniProt Q9H4L4: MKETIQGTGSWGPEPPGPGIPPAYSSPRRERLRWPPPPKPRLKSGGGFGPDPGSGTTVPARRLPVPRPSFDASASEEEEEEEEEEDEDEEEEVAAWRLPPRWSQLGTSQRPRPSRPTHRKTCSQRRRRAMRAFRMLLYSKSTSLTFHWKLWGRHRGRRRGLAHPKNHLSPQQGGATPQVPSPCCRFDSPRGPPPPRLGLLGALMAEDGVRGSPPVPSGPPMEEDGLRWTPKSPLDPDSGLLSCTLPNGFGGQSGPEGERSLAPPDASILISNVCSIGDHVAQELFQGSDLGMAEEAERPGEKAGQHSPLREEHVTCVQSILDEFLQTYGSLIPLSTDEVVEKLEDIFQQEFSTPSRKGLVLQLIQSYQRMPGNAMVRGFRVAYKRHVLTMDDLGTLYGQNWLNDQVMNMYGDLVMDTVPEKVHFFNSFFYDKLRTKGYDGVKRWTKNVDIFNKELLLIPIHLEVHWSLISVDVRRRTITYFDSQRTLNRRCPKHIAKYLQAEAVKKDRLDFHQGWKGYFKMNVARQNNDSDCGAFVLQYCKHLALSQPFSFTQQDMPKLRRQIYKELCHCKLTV

PELP1, co-expressed rixosome subunit found with TEX10 or SENP3 baits (from UniProt Q8IZL8 1-1130)
binding [1]: no binding

SENP3, co-expressed rixosome subunit found with PELP1 or TEX10 baits (from UniProt Q9H4L4 1-574) (enzyme)
binding [2]: no binding
binding [3]: no binding
binding [4]: binds
binding [5]: binds
binding [1]: no binding

B1: WDR18, co-expressed rixosome subunit (protein, UniProt Q9BV38 1-432)
chain: MAAPMEVAVCTDSAAPMWSCIVWELHSGANLLTYRGGQAGPRGLALLNGEYLLAAQLGKNYISAWELQRKDQLQQKIMCPGPVTCLTASPNGLYVLAGVAESIHLWEVSTGNLLVILSRHYQDVSCLQFTGDSSHFISGGKDCLVLVWSLCSVLQADPSRIPAPRHVWSHHALPITDLHCGFGGPLARVATSSLDQTVKLWEVSSGELLLSVLFDVSIMAVTMDLAEHHMFCGGSEGSIFQVDLFTWPGQRERSFHPEQDAGKVFKGHRNQVTCLSVSTDGSVLLSGSHDETVRLWDVQSKQCIRTVALKGPVTNAAILLAPVSMLSSDFRPSLPLPHFNKHLLGAEHGDEPRHGGLTLRLGLHQQGSEPSYLDRTEQLQAVLCSTMEKSVLGGQDQLRVRVTELEDEVRNLRKINRDLFDFSTRFITRPAK
binding [6]: no binding
binding [7]: binds
binding [1]: no binding

B2: sPELP1 peptide (PELP1 residues Ala764-Glu781) (peptide, UniProt Q8IZL8 764-781, looked up)
peptide: AFVHYDKEEASDVEISLE
notes: also called short (s) PELP1; PELP1^SLiM peptide (764 to 781aa); source: synthetic peptide (GenScript)
binding [8]: binds

B3: TEX10, co-expressed rixosome subunit found with PELP1 or SENP3 baits (protein, UniProt Q9NXF1 1-929)
chain: MTKKRKRQHDFQKVKLKVGKKKPKLQNATPTNFKTKTIHLPEQLKEDGTLPTNNRKLNIKDLLSQMHHYNAGVKQSALLGLKDLLSQYPFIIDAHLSNILSEVTAVFTDKDANVRLAAVQLLQFLAPKIRAEQISPFFPLVSAHLSSAMTHITEGIQEDSLKVLDILLEQYPALITGRSSILLKNFVELISHQQLSKGLINRDRSQSWILSVNPNRRLTSQQWRLKVLVRLSKFLQALADGSSRLRESEGLQEQKENPHATSNSIFINWKEHANDQQHIQVYENGGSQPNVSSQFRLRYLVGGLSGVDEGLSSTENLKGFIEIIIPLLIECWVEAVPPQLATPVGNGIEREPLQVMQQVLNIISLLWKLSKQQDETHKLESWLRKNYLIDFKHHFMSRFPYVLKEITKHKRKEPNKSIKHCTVLSNNIDHLLLNLTLSDIMVSLANASTLQKDCSWIEMIRKFVTETLEDGSRLNSKQLNRLLGVSWRLMQIQPNREDTETLIKAVYTLYQQRGLILPVRTLLLKFFSKIYQTEELRSCRFRYRSKVLSRWLAGLPLQLAHLGSRNPELSTQLIDIIHTAAARANKELLKSLQATALRIYDPQEGAVVVLPADSQQRLVQLVYFLPSLPADLLSRLSRCCIMGRLSSSLAAMLIGILHMRSSFSGWKYSAKDWLMSDVDYFSFLFSTLTGFSKEELTWLQSLRGVPHVIQTQLSPVLLYLTDLDQFLHHWDVTEAVFHSLLVIPARSQNFDILQSAISKHLVGLTVIPDSTAGCVFGVICKLLDHTCVVSETLLPFLASCCYSLLYFLLTIEKGEAEHLRKRDKLWGVCVSILALLPRVLRLMLQSLRVNRVGPEELPVVGQLLRLLLQHAPLRTHMLTNAILVQQIIKNITTLKSGSVQEQWLTDLHYCFNVYITGHPQGPSALATVY
binding [6]: no binding

Source: publication PMC12292926, “PELP1 coordinates the modular assembly and enzymatic activity of the rixosome complex” (Science Advances, 2025)
